Measurements reported in PubChem BioAssay AID1259285 (Sanger Institute, 2017)

- Test: 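Kinase knock-downs that reduce colorectal cancer cell viability or act with drugs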 (primary screen)
- System: human HCC56 colorectal cancer cells
- Knock-down reagent: siRNA pool against human genes
- Challenge: DMSO vehicle, or anchor drug BYL719 at 1 µM, cetuximab at 5 µg/ml, or trametinib at 10 nM
- Detection: 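Replicate-averaged viability relative to non-targeting siRNA, expressed as a robust z-score from controls, plus a synergy score for each of three anchor drugs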
- Reading the numbers: viability robust z-score, no drug: higher = more viable cells, weaker knock-down effect; viability vs non-targeting pool, no drug: higher = more viable cells
- Hit rule: 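a knock-down counts as essential if its viability z-score without drug is under -3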
- Meaning of the calls: active = essential without drug; inactive = no change without drug
Shown is a random part of 794 reagents tested. 20 of them (2.5%) count as active. 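Calls rest on the drug-free arm alone and ignore synergy scores; viability ratios seem to be capped at 1.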 Not all columns of the deposit are shown. Not stated in the record: the amount of reagent, the time to read-out.

CASK | viability robust z-score, no drug = -1.6; viability vs non-targeting pool, no drug = 0.823; Outcome = inactive
ROCK2 | viability robust z-score, no drug = 0.458; viability vs non-targeting pool, no drug = 1; Outcome = inactive
CDC42BPA | viability robust z-score, no drug = 0.458; viability vs non-targeting pool, no drug = 1; Outcome = inactive
MTOR | viability robust z-score, no drug = 0.458; viability vs non-targeting pool, no drug = 1; Outcome = inactive
CKB | viability robust z-score, no drug = 0.458; viability vs non-targeting pool, no drug = 1; Outcome = inactive
CSNK1E | viability robust z-score, no drug = 0.458; viability vs non-targeting pool, no drug = 1; Outcome = inactive
CDK11A | viability robust z-score, no drug = -0.767; viability vs non-targeting pool, no drug = 0.895; Outcome = inactive
DGKK | viability robust z-score, no drug = 0.144; viability vs non-targeting pool, no drug = 0.973; Outcome = inactive
MASTL | viability robust z-score, no drug = 0.458; viability vs non-targeting pool, no drug = 1; Outcome = inactive
GUCY2C | viability robust z-score, no drug = 0.458; viability vs non-targeting pool, no drug = 1; Outcome = inactive
PTEN | viability robust z-score, no drug = 0.458; viability vs non-targeting pool, no drug = 1; Outcome = inactive
GALK2 | viability robust z-score, no drug = 0.458; viability vs non-targeting pool, no drug = 1; Outcome = inactive

Copied from the list:
Under “Outcome”, CDC42BPA shows inactive
Entry for CDK11A under “viability vs non-targeting pool, no drug”: 0.895
